From paper PMC11994786 come the findings set out here.

Amino acid sequences for entries named in this document (tags omitted).
UniProt P69566: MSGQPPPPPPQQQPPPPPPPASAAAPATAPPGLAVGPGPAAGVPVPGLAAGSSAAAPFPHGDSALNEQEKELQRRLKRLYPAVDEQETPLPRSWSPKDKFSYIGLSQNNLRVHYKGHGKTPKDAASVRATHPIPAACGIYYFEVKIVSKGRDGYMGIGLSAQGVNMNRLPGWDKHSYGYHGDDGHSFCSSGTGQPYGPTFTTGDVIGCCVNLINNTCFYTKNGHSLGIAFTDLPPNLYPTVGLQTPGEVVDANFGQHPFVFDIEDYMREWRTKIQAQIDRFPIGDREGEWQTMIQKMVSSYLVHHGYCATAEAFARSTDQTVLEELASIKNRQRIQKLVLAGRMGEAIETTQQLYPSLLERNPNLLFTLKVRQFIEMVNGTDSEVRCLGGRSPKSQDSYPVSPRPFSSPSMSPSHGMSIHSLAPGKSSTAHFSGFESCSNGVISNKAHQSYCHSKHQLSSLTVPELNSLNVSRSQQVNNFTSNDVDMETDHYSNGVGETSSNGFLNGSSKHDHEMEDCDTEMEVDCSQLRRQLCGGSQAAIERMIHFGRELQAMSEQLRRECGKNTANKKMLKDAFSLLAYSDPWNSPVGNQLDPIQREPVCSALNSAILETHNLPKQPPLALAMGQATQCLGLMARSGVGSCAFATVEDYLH

In assay [1] the target is RanBP9-V5 (Ran Binding Protein 9 with a V5 tag at the C-terminus) (mouse) (UniProt P69566). In words: affinity purification with mass spectrometry; anti-V5 magnetic beads on 1 mg pre-cleared whole lung lysate of LysMBP9X mice, overnight at 4 °C, on-bead trypsin digestion, LC-MS/MS; hits significant (p ≤ 0.05) against V5-IP from WT mice and Ig-IPs.
Assay [2] addresses RanBP9-3xHA (Ran Binding Protein 9 fused to three copies of the HA tag) (mouse) (UniProt P69566). In words: affinity purification with mass spectrometry; anti-HA magnetic beads on 1 mg pre-cleared whole lung lysate of LysMBP9X mice, overnight at 4 °C, on-bead trypsin digestion, LC-MS/MS; hits significant (p ≤ 0.05) against HA-IP from WT mice and Ig-IPs.

These are yes or no findings as the source states them, for the method shown. In cells and extracts the contact can be indirect. Here binding means that the protein was enriched with, or labelled near, the bait; the list need not be complete.

B1: Acot2 (protein, UniProt Q9QYR9 43-453)
chain: NATLSVEPEGRSCWDEPLSIAVRGLAPEQPVTLRSALRDEKGALFRAHARYRADAGGELNLARAPALGGSFSGLEPMGLLWAMEPERPLWRLIKRDVQTPFLVELEVLDGHEPDGGQRLAQAVHERHFLAPGVRRVPVREGRVRATLFLPPEPGPFPGIIDLFGVGGGLLEYRASLLAGKGFAVMALAYYNYDDLPKSIETMHMEYFEEAVNYLRSHPEVKGPGIGLLGISKGGELGLAMASFLKGITAAVVINGSVAAVGNTISYKDETIPPVSLLRNQVKMTKDGLLDVVEALQSPLVDKKSFIPVERSDTTFLFLVGQDDHNWKSEFYADEISKRLQAHGKEKPQIICYPAAGHYIEPPYFPLCSAGMHLLVGANITFGGEPRAHAVAQVDAWQQLQTFFHKQLGSKS
B1: the binding entry in assay [1] is “binds”.

B2: Maea (Macrophage erythroblast attacher, E3 ubiquitin ligase) (protein, UniProt Q4VC33 1-396)
chain: MAVQESAAQLSMTLKVQEYPTLKVPYETLNKRFRAAQKNIDRETSHVTMVVAELEKTLSSCPAVDSVVSLLDGVVEKLSVLKRKAVESIQAEDESAKLCKRRIEHLKEHSSDQPAAASMWKRKRMDRMMVEHLLRCGYYNTAVKLARQSGIEDLVNIEMFLTAKEVEESLERRETATCLAWCHDNKSRLRKMKSCLEFSLRIQEFIELVRQNKRLDAVRHARKHFSQAEGSQLDEVRQVMGMLAFPPDTHISPYKDLLDPARWRMLIQQFRYDNYRLHQLGNSSVFTLTLQAGLSAIKTPQCYKEDGSSKSPDCPVCSRSLNKLAQPLPMAHCANSRLVCKISGDVMNENNPPMMLPNGYVYGYNSLLSIRQDDKVVCPRTKEVFHFSQAEKVYIM
On to B2, for which the binding result in assay [2] and in assay [1] was “binds” throughout.

B3: Qdpr (Quinoid Dihydropteridine Reductase) (protein, UniProt Q8BVI4 1-241)
chain: MAASGEARRVLVYGGRGALGSRCVQAFRARNWWVASIDVVENEEASASVVVKMTDSFTEQADQVTADVGKLLGDQKVDAILCVAGGWAGGNAKSKSLFKNCDMMWKQSMWTSTISSHLATKHLKEGGLLTLAGAKAALDGTPGMIGYGMAKGAVHQLCQSLAGKNSGMPPGAAAIAVLPVTLDTPMNRKSMPEADFSSWTPLEFLVETFHDWITGNKRPNSGSLIQVVTTDGKTELTPAYF
Turning to B3, the binding entry in assay [1] is recorded as “binds”.

B4: Cux1 (Cut Like Homeobox 1) (protein, UniProt H3BJN3 1-678)
chain: MAANVGSMFQYWKRFDLQQLQRELDATATVLANRQDESEQSRKRLIEQSREFKKNTPEDLRKQVAPLLKSFQGEIDALSKRSKEAEAAFLTVYKRLIDVPDPVPALDVGQQLEIKVQRLHDIETENQKLRETLEEYNKEFAEVKNQEVTIKALKEKIREYEQTLKSQAETIALEKEQKLQNDFAEKERKLQETQMSTTSKLEEAEHKLQTLQTALEKTRTELFDLKTKYDEETTAKADEIEMIMTDLERANQRAEVAQREAETLREQLSSANHSLQLASQIQKAPDVEQAIEVLTRSSLEVELAAKEREIAQLVEDVQRLQASLTKLRENSASQISQLEQQLNAKNSTLKQLEEKLKGQADYEEVKKELNTLKSMEFAPSEGAGTQDSTKPLEVLLLEKNRSLQSENATLRISNSDLSGRCAELQIHLTEATAKAVEQKELIARLEQDLSTIQSIQRPDAEGASEQGLEKIPEPIKEATALFYGPSMSSSGTLPEGQVDSLLSIISSQRERFRTRNQELEAESRMAQHTIQALQSELDSLRADNIKLFEKIKFLQSYPGRGIGSDDTELRYSSQYEERLDPFSSFSKRERQRKYLGLSPWDKATLGMGRLILSNKMARTISFFYTLFLHCLVFLVLYKLAWSESVERDCAATCAKKFADHLHKFHESDNGAAAGDLWQ
For B4, in assay [1], the binding entry is listed as “binds”.

B5: Trip13 (protein, UniProt Q3UA06 1-432)
chain: MDEAVGDLKQALPCVAESPAVHVEVLQRSGSTAKKEDIKSSVYRLLNRHNIVFGDYVWTEFDDPFLSRNVQSVSIVDTELKAKDPQPIDLSACTIALHIFQLNEEGPSSENLDEETENIIAASHWVLPAAEFHGLWDSLVYDVEVKSHLLDYVMTTVLFSDKNVDSNLITWNRVVLLHGPPGTGKTSLCKALAQKLTIRLSSRYRYGQLIEINSHSLFSKWFSESGKLVTKMFQKIQDLIDDKEALVFVLIDEVESLTAARNACRAGAEPSDAIRVVNAVLTQIDQIKRHSNVVILTTSNITEKIDVAFVDRADIKQYIGPPSAAAIFKIYLSCLEELMKCQIIYPRQQLLTLRELEMIGFIENNVSKLSLLLSEISRKSEGLSGRVLRKLPFLAHALYIQAPSVTIEGFLQALSLAVDKQFEEKKKLSAYV
Take B5: the binding entry in assay [1] is “binds”.

B6: Prdx5 (Peroxiredoxin 5) (protein, UniProt P99029 49-210)
chain: MAPIKVGDAIPSVEVFEGEPGKKVNLAELFKGKKGVLFGVPGAFTPGCSKTHLPGFVEQAGALKAKGAQVVACLSVNDVFVIEEWGRAHQAEGKVRLLADPTGAFGKATDLLLDDSLVSLFGNRRLKRFSMVIDNGIVKALNVEPDGTGLTCSLAPNILSQL
Regarding B6, the binding result in assay [1] is reported as “binds”.

B7: Mccc1 (Methylcrotonyl-CoA Carboxylase subunit 1) (protein, UniProt Q99MR8 39-717)
chain: TTPGGSITKVLIANRGEIACRVIRTAKKMGVQSVAVYSEADRNSMHVDMADEAYSIGPAPSQQSYLAMEKIIQVAKSSAAQAIHPGYGFLSENMEFAELCKQEGIIFIGPPSSAIRDMGIKSTSKSIMAAAGVPVVEGYHGKDQSDQCLREHAGKIGYPVMIKAVRGGGGKGMRIVRSEREFQEQLESARREAKKSFNDDAMLIEKFVDTPRHVEVQVFGDHHGNAVYLFERDCSVQRRHQKIIEEAPAPGINPEVRRKLGEAAVRAAKAVKYVGAGTVEFIMDSRHNFYFMEMNTRLQVEHPVTEMITGTDLVEWQLRIAAGEKIPLSQEEIPLQGHAFEARIYAEDPDNNFMPGAGPLVHLSTPSADMSTRIETGVRQGDEVSVHYDPMIAKLVVWASDRQSALSKLRYCLHQYNIVGLRSNVDFLLRLSGHPEFEAGNVHTDFIPQHHKDLLPSHSTIAKESVCQAALGLILKEKEMTSAFKLHTQDQFSPFSFSSGRRLNISYTRNMTLRSGKSDIVIAVTYNRDGSYDMQIDNKSFRVLGDLSSEDGCTYLKSSINGVARKSKFILLDNTVHLFSMEGSIEVGIPVPKYLSPVSAEGAQGGTIAPMTGTIEKVFVKAGDRVKAGDSLMVMIAMKMEHTIKAPKDGRIKKVFFSEGAQANRHAPLVEFEEEESDK
B7: the binding result in assay [2] and in assay [1] was “binds” in each case.

B8: Atp5po (ATP synthase peripheral stalk subunit OSCP) (protein, UniProt Q9DB20 24-213)
chain: FAKLVRPPVQVYGIEGRYATALYSAASKEKKLDQVEKELLRVGQLLKDPKVSLAVLNPYIKRTVKVKSLNDITKREKFSPLTANLMNLLAENGRLGNTQGIISAFSTIMSVHRGEVPCTVTTASPLDDAVLSELKTVLKSFLSPNQILKLEIKTDPSIMGGMIVRIGEKYVDMSAKSKIQKLSKAMREML
Regarding B8, the binding result in assay [2] and in assay [1] was “binds” in each case.

B9: Rmnd5A (Required for meiotic nuclear division 5 homolog A) (protein, UniProt Q80YQ8 1-391)
chain: MDQCVTVERELEKVLHKFSGYGQLCERGLEELIDYTGGLKHEILQSHGQDAELSGTLSLVLTQCCKRIKDTVQKLASDHKDIHSSVSRVGKAIDKNFDSDISSVGIDGCWQADSQRLLNEVMVEHFFRQGMLDVAEELCQESGLSVDPSQKEPFVELNRILEALKVRVLRPALEWAVSNREMLIAQNSSLEFKLHRLYFISLLMGGTTNQREALQYAKNFQPFALNHQKDIQVLMGSLVYLRQGIENSPYVHLLDANQWADICDIFTRDACALLGLSVESPLSVSFSAGCVALPALINIKAVIEQRQCTGVWNQKDELPIEVDLGKKCWYHSIFACPILRQQTTDNNPPMKLVCGHIISRDALNKMFNGSKLKCPYCPMEQSPGDAKQIFF
Regarding B9, the binding result in assay [2] and in assay [1] was “binds” throughout.

B10: Mdh2 (protein, UniProt P08249 25-338)
chain: AKVAVLGASGGIGQPLSLLLKNSPLVSRLTLYDIAHTPGVAADLSHIETRANVKGYLGPEQLPDCLKGCDVVVIPAGVPRKPGMTRDDLFNTNATIVATLTAACAQHCPEAMVCIIANPVNSTIPITAEVFKKHGVYNPNKIFGVTTLDIVRANTFVAELKGLDPARVNVPVIGGHAGKTIIPLISQCTPKVDFPQDQLATLTGRIQEAGTEVVKAKAGAGSATLSMAYAGARFVFSLVDAMNGKEGVVECSFVQSKETECTYFSTPLLLGKKGLEKNLGIGKITPFEEKMIAEAIPELKASIKKGEDFVKNMK
For B10, in assay [1], the binding result is “binds”.

B11: Dpm3 (protein, UniProt Q9D1Q4 1-92)
chain: MTKLTQWLWGLALLGSAWAALTMGALGLELPFPCREVLWPLPAYLLVSAGCYALGTVGYRVATFHDCEDAARELQSQIVEARADLARRGLRF
B11: the binding result in assay [1] is “binds”.
